Data on 1 substance can be found in PMC5167132.

The chains behind the UniProt entries cited, without tags or fusion partners. Where a name states a change or a piece, a line headed by the entry shows the natural chain unless it says otherwise.
UniProt Q99720: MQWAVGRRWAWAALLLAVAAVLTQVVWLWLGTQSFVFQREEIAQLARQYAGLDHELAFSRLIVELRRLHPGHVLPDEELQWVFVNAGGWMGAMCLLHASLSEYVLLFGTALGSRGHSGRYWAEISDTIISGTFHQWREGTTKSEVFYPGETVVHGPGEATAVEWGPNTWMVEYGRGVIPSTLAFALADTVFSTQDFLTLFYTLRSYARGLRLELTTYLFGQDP
UniProt Q14573: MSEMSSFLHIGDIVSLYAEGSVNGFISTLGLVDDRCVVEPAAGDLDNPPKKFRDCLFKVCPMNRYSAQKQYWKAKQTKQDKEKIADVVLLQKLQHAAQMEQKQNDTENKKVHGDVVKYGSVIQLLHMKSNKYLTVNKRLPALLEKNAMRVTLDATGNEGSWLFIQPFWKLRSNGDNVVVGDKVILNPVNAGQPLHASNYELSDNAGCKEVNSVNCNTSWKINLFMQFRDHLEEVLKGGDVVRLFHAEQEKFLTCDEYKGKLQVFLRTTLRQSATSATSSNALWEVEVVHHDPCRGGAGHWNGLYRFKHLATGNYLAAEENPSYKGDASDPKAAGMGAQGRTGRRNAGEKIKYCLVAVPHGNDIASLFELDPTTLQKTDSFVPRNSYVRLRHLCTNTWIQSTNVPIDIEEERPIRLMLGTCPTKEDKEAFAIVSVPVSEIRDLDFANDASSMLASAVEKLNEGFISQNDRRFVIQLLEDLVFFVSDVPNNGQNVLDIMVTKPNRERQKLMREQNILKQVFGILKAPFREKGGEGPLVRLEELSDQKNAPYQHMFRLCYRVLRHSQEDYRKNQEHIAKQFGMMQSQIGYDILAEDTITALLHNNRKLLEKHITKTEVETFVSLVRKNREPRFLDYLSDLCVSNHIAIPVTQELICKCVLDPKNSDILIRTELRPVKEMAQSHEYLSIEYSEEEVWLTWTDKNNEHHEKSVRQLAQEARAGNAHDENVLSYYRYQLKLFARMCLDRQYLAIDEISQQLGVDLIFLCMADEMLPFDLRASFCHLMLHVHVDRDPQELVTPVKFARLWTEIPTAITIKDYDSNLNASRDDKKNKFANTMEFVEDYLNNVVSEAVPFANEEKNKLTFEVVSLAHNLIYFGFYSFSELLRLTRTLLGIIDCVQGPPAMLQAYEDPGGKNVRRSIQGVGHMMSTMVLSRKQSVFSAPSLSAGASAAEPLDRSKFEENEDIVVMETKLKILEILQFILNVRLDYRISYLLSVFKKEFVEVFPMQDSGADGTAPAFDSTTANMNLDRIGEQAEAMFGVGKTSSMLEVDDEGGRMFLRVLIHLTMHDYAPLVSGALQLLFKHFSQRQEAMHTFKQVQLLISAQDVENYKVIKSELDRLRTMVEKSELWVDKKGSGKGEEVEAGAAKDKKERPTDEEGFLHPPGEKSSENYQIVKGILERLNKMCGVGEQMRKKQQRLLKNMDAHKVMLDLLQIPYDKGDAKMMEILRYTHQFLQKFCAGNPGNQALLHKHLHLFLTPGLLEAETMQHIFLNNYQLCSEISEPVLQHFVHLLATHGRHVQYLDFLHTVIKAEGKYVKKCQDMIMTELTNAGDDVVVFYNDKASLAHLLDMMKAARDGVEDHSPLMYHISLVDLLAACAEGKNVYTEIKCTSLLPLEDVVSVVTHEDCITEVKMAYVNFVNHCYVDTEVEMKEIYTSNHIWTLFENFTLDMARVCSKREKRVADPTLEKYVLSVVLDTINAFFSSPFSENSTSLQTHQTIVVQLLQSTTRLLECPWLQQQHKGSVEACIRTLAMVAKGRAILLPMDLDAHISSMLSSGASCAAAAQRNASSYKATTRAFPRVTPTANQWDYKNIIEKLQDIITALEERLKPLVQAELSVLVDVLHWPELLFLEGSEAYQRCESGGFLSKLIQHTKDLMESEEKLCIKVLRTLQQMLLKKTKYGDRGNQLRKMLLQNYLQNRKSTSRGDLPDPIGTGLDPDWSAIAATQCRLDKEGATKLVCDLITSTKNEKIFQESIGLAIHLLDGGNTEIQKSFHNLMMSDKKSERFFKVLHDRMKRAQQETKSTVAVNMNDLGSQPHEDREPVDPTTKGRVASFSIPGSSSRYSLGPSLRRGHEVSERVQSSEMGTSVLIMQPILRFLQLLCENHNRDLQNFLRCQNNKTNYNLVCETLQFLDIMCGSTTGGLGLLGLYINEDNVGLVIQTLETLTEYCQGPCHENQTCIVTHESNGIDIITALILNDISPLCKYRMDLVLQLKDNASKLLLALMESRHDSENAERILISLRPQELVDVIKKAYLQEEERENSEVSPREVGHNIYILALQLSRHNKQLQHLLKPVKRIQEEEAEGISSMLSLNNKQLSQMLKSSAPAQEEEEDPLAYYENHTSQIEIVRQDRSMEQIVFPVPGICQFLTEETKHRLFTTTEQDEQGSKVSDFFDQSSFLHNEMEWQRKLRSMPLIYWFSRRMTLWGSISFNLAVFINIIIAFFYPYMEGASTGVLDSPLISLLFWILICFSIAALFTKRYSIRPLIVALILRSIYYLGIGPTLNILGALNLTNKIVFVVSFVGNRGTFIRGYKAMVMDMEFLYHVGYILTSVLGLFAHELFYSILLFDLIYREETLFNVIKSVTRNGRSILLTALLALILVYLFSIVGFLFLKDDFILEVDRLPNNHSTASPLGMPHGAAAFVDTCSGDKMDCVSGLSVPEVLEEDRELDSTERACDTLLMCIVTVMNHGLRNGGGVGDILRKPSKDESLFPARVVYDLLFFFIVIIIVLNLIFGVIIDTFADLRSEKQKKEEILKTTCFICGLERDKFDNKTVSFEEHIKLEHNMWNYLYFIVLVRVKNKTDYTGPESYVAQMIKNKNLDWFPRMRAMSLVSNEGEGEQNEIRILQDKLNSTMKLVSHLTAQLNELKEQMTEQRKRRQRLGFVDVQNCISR

Assay [1] concerns the target sigma 1 receptor (Sig1R) E102Q, ALS-linked variant, FLAG tagged (UniProt Q99720). The experiment in a line: co-IP; Sig1R-FLAG variants transfected in N2a-IP3R3 cells; lysis in 50 mM Tris-HCl (pH 8.0), 150 mM NaCl, 1% CHAPS; anti-FLAG M2 overnight at 4°C, protein G Sepharose; eluted with FLAG peptide; immunoblotting for IP3R3. (Immunoblotting shows a protein as a band on a membrane.)

For assay [2], the target named is sigma 1 receptor (Sig1R), wild type, FLAG tagged (UniProt Q99720). The assay is described as above.

No constants are given. Whether binding was seen depends on the method and setting. Binding seen in cells or lysates may run through a third protein. Some binding calls cover weakened binding; strength is not graded here.

“human inositol 1,4,5-triphosphate receptor type 3 (IP3R3), C-terminal HA tag (from UniProt Q14573 1-2671)”: the figures for the binding entry in assay [1] and in assay [2] were “no binding” and “binds”, respectively.
